# The campaign covered roughly 52,000 sequences. About 210 (0.4%) were called active.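 The calls were made as follows: active = gene whose silencing raises cell survival under the drug, median off-target-corrected z-score across its silencing RNAs 2 or more; inactive = the rest.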 This is one part of the list.
# Assay: Resistance to Poly (ADP-Ribose) Polymerase inhibitor: Gene Identification via Genome-wide siRNA Screen
# Conditions: mouse BRCA2 R2336H ES cells, olaparib, CellTiter-Glo viability; active compounds read high
# Outline: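 Mouse BRCA2 R2336H ES cells were reverse-transfected with siRNA (20 nM final), treated at 48 h with 500 nM olaparib, and read by CellTiter-Glo after 72 h. Scores: MAD-based z per siRNA, median per gene, seed off-target correction.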
row,Sequence,z-score
1,GCAACUACGUGUUCGUGUUTT against Rabac1,inactive: 0.916
2,GCAAAUCGACCACUUUCCGTT against Cacng2,inactive: 1.21
3,GGUUUUUGAGUGGGAGACCTT against 2410004A20Rik,inactive: -0.0378
4,GCACGAUCUUCCAAACCCUTT against Dhh,inactive: 0.413
5,GCUGCACCAUCAAUUCCCATT against Vpreb3,inactive: -1.68
6,GGUGUCAACUUUAUUCUUUTT against Rab1,inactive: 0.314
7,GGUUCAAAAGUCGAGCGAATT against Nudt9,inactive: 0.425
8,CGAAGUACGAGAAACACGUTT against AI316807,inactive: -2.64
9,CCUGAAAACACGUAUUGAATT against Igfbp4,inactive: -1.14
10,GGACGACUUCUACCUCAACTT against Fzr1,inactive: -1.55
11,GCGAAUCUCCACAAGAUGGTT against 2300002M23Rik,inactive: -0.91
12,GGAAGGUACCUACUCACUATT against Gm2a,inactive: -1.11
13,GGUAACUUCUCUUCUGAGATT against H2-Oa,inactive: 0.491
14,CCAUCUAGGUUAUUACAUGTT against 4930521A18Rik,inactive: 0.108
15,GGCAUAGGACUAGAAGCAGTT against 1500011J06Rik,inactive: -1.65
16,GCACAUGUAUCCAUGCUUCTT against Kcnj11,inactive: 0.624
17,GGGAUGAGACACGAAACCUTT against Itga2b,inactive: -0.424
18,GCUGAGGGAUAUCUCAGCCTT against Edn2,inactive: 0.0989
19,GGACUAUGAAAUUGACUGUTT against Hdlbp,inactive: -0.0015
20,CGACCUAACCAACAUGCUUTT against Ddefl1,inactive: 0.602
21,GGACCCAUCGGAUAACUAUTT against 2310004N11Rik,inactive: -0.885
22,CCAGCUAUUGGAAGUAAAATT against Nbn,inactive: -1.57
23,GGUUGUCAUUCUUAUCCUUTT against Mageb1,inactive: 0.666
24,GCUGGGCAUUACCCAUGUUTT against Dusp13,inactive: -0.443
25,GGAAGGUGGCUAUUUUAAUTT against Acsl3,inactive: 0.94
26,CCUUCAAUCUUCCUAGUGATT against Bat3,inactive: 0.779
27,GGAGCUUCCACAACUCAUATT against Esd,inactive: -0.0778

row,Sequence,z-score
1,GGACCUUCUUUGAACAUAATT against 6430537H07Rik,inactive: -2.14
2,GGUUAGCCUACUCUCUAAUTT against Tomm22,inactive: -0.0167
3,CCAUUGACUCCAGUGGGAATT against 2610205E22Rik,inactive: -1.79
4,GUCUUCUCUGCCUGUCUGATT against Sprrl1,inactive: -0.316
5,GCUAGAGGAGUUUCUAAACTT against Clu,inactive: 1.23
6,GGAUGGUGGCAUUUUACAGTT against 2810407A14Rik,inactive: 1.42
7,GGCCUGCCAGAUAUGAAAATT against Ces2,inactive: -0.881
8,CCGAGUGAUGACCUACCGUTT against 1700019E19Rik,inactive: 2.41
9,CCACUUCUUUCCAUGAACUTT against Slc6a4,inactive: -0.00872
10,GGAUGGUCUGCUAUUACAUTT against Phf7,inactive: -1.14
11,GGCAAGUUCCGAGAAGGGATT against Irf4,inactive: -0.916
12,GGGAGAAGAGAUUCUGAUATT against Sh2d1a,inactive: 0.179
13,CGAUGAACACACGUCUUAUTT against 2810047L02Rik,inactive: -1.33
14,GGUAUUAUUUCUGAAUGCCTT against Mtrf1l,inactive: 1.49
15,GGAGUGGGAGAAGAUGGAATT against Mbd4,inactive: -1.55
16,GGAAACAGCUGCUAAGUGCTT against Dhrs8,inactive: 0.0688
17,CGGCCUCUUCUGGUUGUUGTT against BC038286,inactive: 0.616
18,GCAUCAGCUCACCUUUGUATT against BC049354,inactive: -0.629
19,CCCUUAUCCCAAUAAUAAGTT against Spag5,inactive: -0.6
20,GGUGGUACGCAAUCAAAAGTT against Wbscr17,inactive: 0.874
21,CCAAACCGAUAUAUAAAGUTT against Ddx51,inactive: 0.172
22,GGCCACAAGUUUUCAGACGTT against Actl7b,inactive: 0.834
23,GGCACACAAACAAUUGGUATT against BC011248,inactive: -0.386
24,GGCCCAUAUCCACAUGAUGTT against Uxt,inactive: -1.03
25,CCAUGACCUCACUGAAGUCTT against Slc26a6,inactive: -0.85
26,CGCAUCUGUUUCUUUUCCCTT against 1700029P11Rik,inactive: -0.409
27,GAUAUCACAGAUCUGUUGUTT against Krtap13,inactive: -0.0396

# Fetched one by one from the entries so far (2):
row,Sequence,z-score
5,GCUGCACCAUCAAUUCCCATT against Vpreb3,inactive: -1.68
27,GGAGCUUCCACAACUCAUATT against Esd,inactive: -0.0778

# (list continues)

row,Sequence,z-score
1,GGAUAUUCUGUUUUAUGUCTT against D130054N24Rik,inactive: -0.669
2,GGUUUUAUGAUAAGGCUCATT against Olfr895,inactive: 0.152
3,GGUAUUUCAUGAACAUCACTT against Grin2d,inactive: 1.84
4,GGAAAUGGAAUCAAGACAGTT against Eif5,inactive: -0.909
5,GCUACUUGGAGUGGAUCUGTT against Klk15,inactive: -2.77
6,GGUGCAUUCAUUAUCUUAATT against Ikbkb,inactive: 0.659
7,GCGAACCAUUCCACUCUUUTT against Hpgd,inactive: 0.597
8,GGAACUAGUCUGGUGAACUTT against Apoa2,inactive: 1.32
9,CCUUAAUACAACUUGUCCCTT against BC026996,inactive: 1.23
10,GGAUGUCAGGACAAAACCATT against Olfr1335,inactive: 0.786
11,CCUCAUGCAGUUAAAUAUGTT against Kera,inactive: -0.257
12,GGCAGAAACUAGCAGAAGATT against Gdf2,inactive: -1.04
13,UGGGCCUUGUAGGCUUCAUTT against 4631403P03Rik,inactive: 0.712
14,GGCCAUUGUUACUGGAAAATT against Elmo2,inactive: -0.978
15,GGCAGGCAACCAAUCAAAUTT against Npepps,inactive: -0.666
16,GCUCUGCUAACUUACAUCUTT against BC051083,inactive: 0.361
17,GGUAGAGGAGAUCUUCAAGTT against Entpd5,inactive: 0.113
18,CGUUGUCUAAAUUGUGAAATT against Kpna3,inactive: 1.91
19,GGGUCAGAUUUUCAAUGUCTT against Bmpr1b,inactive: 0.643
20,GGAUAACCUAUCGAAUCUCTT against Dsg4,inactive: 2.02
21,CGGAUUACAAACCAUAAAATT against Rkhd3,inactive: 0.102
22,GGAACUGGAGUUUCUUAGCTT against Anp32e,inactive: -0.378
23,GGGAAGACGACUGUAAUUGTT against Mrps18a,inactive: -0.385
24,GCAAGAUUCAUUGUCACUGTT against Vil2,inactive: 1.04
25,GCACACACAUCAGUAAAUUTT against Olfr1444,inactive: -1.98
26,CCAAACCAGCACAUUGAAGTT against Il12a,inactive: -0.738
27,CCUCUUCCUGCUAAUCAUUTT against Olfr599,inactive: -1.04

# Reformatted: results already given
row | Sequence | z-score
1 | GGAUAUUCUGUUUUAUGUCTT against D130054N24Rik | inactive: -0.669
2 | GGUUUUAUGAUAAGGCUCATT against Olfr895 | inactive: 0.152
4 | GGAAAUGGAAUCAAGACAGTT against Eif5 | inactive: -0.909
11 | CCUCAUGCAGUUAAAUAUGTT against Kera | inactive: -0.257
26 | CCAAACCAGCACAUUGAAGTT against Il12a | inactive: -0.738

# (next part)

row,Sequence,z-score
1,GGCCUACGCAUCUUCUACCTT against Mest,inactive: 0.508
2,GGAAAGAAGUGUCAGUUUUTT against Rfrp,inactive: 0.526
3,GGUCUUGGUGAGCAUGAGATT against Lnpep,inactive: 0.579
4,GCGGUCACGUGUGAUGGAUTT against E430039K05Rik,inactive: 1.13
5,GGAGGAACUGGAUUCUUACTT against Eps8l3,inactive: -1.18
6,GGUCCUAAAAUUUCCUCUUTT against Prdx3,inactive: 0.153
7,GGUCAAGAUGUCAUUAUGATT against Apeg1,inactive: 0.873
8,GGAAAAUCACCUAUAAGAATT against Rabl2a,inactive: 0.996
9,GGCCAUUUACAAGAUGGUUTT against Hpca,inactive: -0.329
10,GGCUGAACAGCAAAAAAAATT against Foxn4,inactive: 0.546
11,GGAACAGCUGUGAUUAACGTT against Prdx4,inactive: -0.153
12,UGAAGUCUAAUCAGAGCACTT against Olfr50,inactive: -2.01
13,CGUGCAGAUCAACGAUAUUTT against Rps5,inactive: -3.15
14,GGACAUUCUGCUACACAAGTT against Bsx,inactive: -0.137
15,CGGCUCUUCUUAAAAUUGATT against Rpl35a,inactive: -3.28
16,CGAGGACUACUAGAAGAAATT against Trpc1,inactive: 0.53
17,GGUAUCACCAUAGAAUUGUTT against Zfp313,inactive: 0.299
18,GGUUAUUUCCCUGUUUUCATT against Olfr532,inactive: 0.0798
19,GGUUUGGUUACAAAAAUACTT against Mmp16,inactive: -0.339
20,GGACUAAUGUCUCCAACUATT against Rdh7,inactive: -2.16
21,GUUACAGCUGCCUUUGUUUTT against Olfr893,inactive: -3.25
22,GGUGUGUGACUCAGAUACUTT against Has2,inactive: -0.28
23,GGGCUUAAUUAUGUCUUUUTT against C130022P09Rik,inactive: -1.43
24,GGAAAGAUUUAUUUUGACGTT against Vnn3,inactive: -0.229

# From PubChem BioAssay AID1347423 (Functional Genomics Laboratory (NCATS/FGL), 2020)
